These are yes or no findings as the source states them, for the method shown. In cells and extracts the contact can be indirect. Binding can be weak; no strength is given.
Target: recombinant Arabidopsis ISCA1a, coexpressed with ISCA2 (Arabidopsis thaliana) (UniProt Q8LBM4)
Assay: co-expression and co-purification; ISCA1a and ISCA2 coexpressed in E. coli BL21 (DE3) from one pCDF-Duet plasmid and purified together as a [2Fe-2S] cluster-containing heterocomplex; after reconstitution eluted from Q-Sepharose as a single colored fraction

The chains behind the UniProt entries cited, without tags or fusion partners. Where a name states a change or a piece, a line headed by the entry shows the natural chain unless it says otherwise.
UniProt Q8LBM4: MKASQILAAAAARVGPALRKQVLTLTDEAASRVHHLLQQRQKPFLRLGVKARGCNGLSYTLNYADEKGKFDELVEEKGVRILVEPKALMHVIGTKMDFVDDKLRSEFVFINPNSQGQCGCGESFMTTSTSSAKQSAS
UniProt Q8LCY2: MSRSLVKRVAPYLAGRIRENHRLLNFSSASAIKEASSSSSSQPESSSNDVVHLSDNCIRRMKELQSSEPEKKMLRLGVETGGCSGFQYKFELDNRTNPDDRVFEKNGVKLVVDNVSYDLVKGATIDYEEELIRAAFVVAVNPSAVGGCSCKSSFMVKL

binding: binds
Substance: recombinant Arabidopsis ISCA2, coexpressed with ISCA1a (from UniProt Q8LCY2)

From paper PMC7939391, “[4Fe-4S] cluster trafficking mediated by Arabidopsis mitochondrial ISCA and NFU proteins” (The Journal of Biological Chemistry, 2021)
